PubChem BioAssay AID1508588 | Peter MacCallum Cancer Centre – 2020
This is one part, drawn at random, of about 18,000 reagents tested. Of all reagents, 790 (4.4%) got an active call. 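Calls rest on a combination of fold-change classes in drug and vehicle arms, not all shown here.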 A number with no mark means an inactive call.

Test: 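Which gene losses make BRAF-mutant melanoma cells more responsive to vemurafenib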 (primary screen)
Cells: human WM266.4 melanoma cells (BRAF V600 mutant)
Reagents: siRNA pool against human genes, 40 nM
Duration: 96 h from transfection to read-out
Challenge: vemurafenib 300 nM (about IC25), added 48 h after transfection, for 48 h; comparison arm got DMSO vehicle only
Measured: 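Ratios to non-targeting siRNA for cell gain, counted as DAPI nuclei after minus before drug and averaged over two replicates, and for absorbance-read medium lactate per cell; both binned into fold-change classes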
Reading the numbers: cell gain with vemurafenib: higher = more cell gain than with non-targeting siRNA; lactate per cell with vemurafenib: higher = more lactate made per cell
Active means: 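a knock-down counts as enhancing when its fold-change classes with vehicle and with vemurafenib, taken together, show a stronger drug effect on cell gain or lactate per cell; exact class pairs not stated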
Meaning of the calls: active = enhances vemurafenib effect; inactive = no enhancement seen

ADAMTS13 → cell gain with vemurafenib: 0.57; lactate per cell with vemurafenib: 0.68
COPS7A → cell gain with vemurafenib: 0.82; lactate per cell with vemurafenib: 0.72
NHLRC4 → cell gain with vemurafenib: 0.13; lactate per cell with vemurafenib: 0.72
KCNE3 → cell gain with vemurafenib: 0.57; lactate per cell with vemurafenib: 1.64
OR10K2 → cell gain with vemurafenib: 0.26; lactate per cell with vemurafenib: 1.08
VWF → cell gain with vemurafenib: 0.68; lactate per cell with vemurafenib: 1.04
LRCH4 → cell gain with vemurafenib: 0.62; lactate per cell with vemurafenib: 1.68
DRICH1 → cell gain with vemurafenib: 0.89; lactate per cell with vemurafenib: 0.62
HSD17B13 → cell gain with vemurafenib: 1.28; lactate per cell with vemurafenib: 0.82
KCND3 → cell gain with vemurafenib: 0.52; lactate per cell with vemurafenib: 1.68
FBXO34 → cell gain with vemurafenib: 0.96; lactate per cell with vemurafenib: 0.73
TRIM41 → cell gain with vemurafenib: 0.97; lactate per cell with vemurafenib: 0.8
NAF1 → cell gain with vemurafenib: 0.96; lactate per cell with vemurafenib: 0.52
PCCB → cell gain with vemurafenib: 0.77; lactate per cell with vemurafenib: 0.94
SLC30A4 → cell gain with vemurafenib: 0.41; lactate per cell with vemurafenib: 0.88
TMC5 → cell gain with vemurafenib: 0.64; lactate per cell with vemurafenib: 1.04
RPL13 → cell gain with vemurafenib: -0.1; lactate per cell with vemurafenib: 2.12
SMIM8 → cell gain with vemurafenib: 0.38; lactate per cell with vemurafenib: 1.21
TNFRSF11A → cell gain with vemurafenib: 0.68; lactate per cell with vemurafenib: 1.14
SLC25A34 → cell gain with vemurafenib: 0.74; lactate per cell with vemurafenib: 1.22
CHST7 → cell gain with vemurafenib: 0.6; lactate per cell with vemurafenib: 0.85
NAMPT → cell gain with vemurafenib: 0.92; lactate per cell with vemurafenib: 1.14

Continued; the last 6 above are carried over.
RPL13 → cell gain with vemurafenib: -0.1; lactate per cell with vemurafenib: 2.12
SMIM8 → cell gain with vemurafenib: 0.38; lactate per cell with vemurafenib: 1.21
TNFRSF11A → cell gain with vemurafenib: 0.68; lactate per cell with vemurafenib: 1.14
SLC25A34 → cell gain with vemurafenib: 0.74; lactate per cell with vemurafenib: 1.22
CHST7 → cell gain with vemurafenib: 0.6; lactate per cell with vemurafenib: 0.85
NAMPT → cell gain with vemurafenib: 0.92; lactate per cell with vemurafenib: 1.14
RAB6D → cell gain with vemurafenib: 0.96; lactate per cell with vemurafenib: 0.59
ELAVL3 → cell gain with vemurafenib: 0.04; lactate per cell with vemurafenib: 1.55
GOT2 → cell gain with vemurafenib: 0.76; lactate per cell with vemurafenib: 1.52
MUC16 → cell gain with vemurafenib: 0.16; lactate per cell with vemurafenib: 1.45
BCKDHA → cell gain with vemurafenib: 0.4; lactate per cell with vemurafenib: -0.06
SSTR1 → cell gain with vemurafenib: 0.24; lactate per cell with vemurafenib: 1.02
STC2 → cell gain with vemurafenib: 0.67; lactate per cell with vemurafenib: 0.96
SNX21 → cell gain with vemurafenib: 0.67; lactate per cell with vemurafenib: 0.64
CADM4 → cell gain with vemurafenib: 0.65; lactate per cell with vemurafenib: 0.9
FAM234B → cell gain with vemurafenib: 0.54; lactate per cell with vemurafenib: 1.02
MBD1 → cell gain with vemurafenib: 0.76; lactate per cell with vemurafenib: 0.97
UBL7 → cell gain with vemurafenib: 0.17; lactate per cell with vemurafenib: 2.51
PTCRA → cell gain with vemurafenib: 0; lactate per cell with vemurafenib: 2.35
GIMAP7 → cell gain with vemurafenib: 0.38; lactate per cell with vemurafenib: 0.96
CLCC1 → cell gain with vemurafenib: 1.16; lactate per cell with vemurafenib: 0.72
KIAA1191 → cell gain with vemurafenib: 1.32; lactate per cell with vemurafenib: 0.61
TMTC4 → cell gain with vemurafenib: 0.66; lactate per cell with vemurafenib: 1.02
SLC35G1 → cell gain with vemurafenib: 0.65; lactate per cell with vemurafenib: 0.45
CD300LB → cell gain with vemurafenib: 0.93; lactate per cell with vemurafenib: 1.21
TMBIM4 → cell gain with vemurafenib: 0.21; lactate per cell with vemurafenib: 2.01
TAS2R13 → cell gain with vemurafenib: 0.7; lactate per cell with vemurafenib: 0.57
ARHGEF12 → cell gain with vemurafenib: 0.25; lactate per cell with vemurafenib: 0.77
CCT8L1P → cell gain with vemurafenib: 1.11; lactate per cell with vemurafenib: 0.58
ZNF500 → cell gain with vemurafenib: 1.08; lactate per cell with vemurafenib: 0.34
RAB11B → cell gain with vemurafenib: 0.52; lactate per cell with vemurafenib: 0.74
MAPK3 → cell gain with vemurafenib: 0.33; lactate per cell with vemurafenib: 1.38
ZNF174 → cell gain with vemurafenib: 1.05; lactate per cell with vemurafenib: 0.86
TGM4 → cell gain with vemurafenib: 0.59; lactate per cell with vemurafenib: 0.96
SEL1L3 → cell gain with vemurafenib: 0.59 (active); lactate per cell with vemurafenib: 0.42
ATRX → cell gain with vemurafenib: 0.85; lactate per cell with vemurafenib: 0.52
